We go through one molecule from patent US5639793A, “Mammalian DNA topoisomerase II inhibitor and method” (The University of North Carolina at Chapel Hill, priority 1995, dated 1997).

Assay [1] deals with human osteogenic sarcoma (HOS) cells. In words: HOS cell growth inhibition (antiproliferative activity). The class given is cell-based. The note with it: read-out: EC50, HOS cell replication. As to the method:
(§1) Additionally, baby hamster kidney (BHK) cell growth inhibition by these derivatives was investigated.
(§2) Cell growth inhibition assays were performed according to published procedures (Crumpton).
(§3) The HOS cell growth inhibition assays were done according to a published procedure (Crumpton). All cells were grown in Eagle's minimium essential medium supplemented with 10% fetal bovine serum. Flasks were seeded at a density of 1×10^3 cell/cm^2 for monolayer cultures or 2×10^4 /ml for suspension cultures. Suspension cultures were used immediately for drug addition after dilution to a suitable starting density, and, about 24 hours after seeding, the compounds to be tested were added to the monolayer cultures. […] Control flasks also contained 0.1% DMSO.
(§4) Colonies of about 50 or more cells were counted and the plating efficiency was calculated as the per cent cells that were able to form colonies (Goz).

In assay [2] the test system is baby hamster kidney (BHK) cells. In words: BHK cell growth inhibition. The class given is cell-based. As to the method:
as §1, §2, §3, §4

Assay [3] deals with HOS cells resistant to colchicine (HOS colR), expressing p170 glycoprotein. The assay can be described thus: HOS colR cell growth inhibition. Type of assay: cell-based, human. As to the method: as §2, §3, §4

Like-named read-outs stand apart in the source and are kept apart here.

As a reminder, the EC50 is the concentration giving half of the maximal effect. As to `COc1cc2c(c(OC)c1OC)-c1ccc(OC)c(=O)cc1[C@@H](NC(C)=O)CC2` [Colchicine, colchicine, reference compound], the EC50 in assay [1] is 0.00825 ± 0.00075 µM; in assay [2] (Table 1, read-out: BHK--EC50), 5 µM; in assay [2] (read-out: EC50, BHK growth inhibition) it was 5 µM; in assay [3] (HOS colR cells) it was 315 µM. In assay [3] (HOS colR versus HOS not expressing p170), the “EC50 for HOS colR cells compared with HOS cells” value is listed as “several orders of magnitude higher”.
